The target of assay [1] is T1, ectodomain-only MICA, expressed in bacteria (human) (UniProt Q29983).
T1 sequence: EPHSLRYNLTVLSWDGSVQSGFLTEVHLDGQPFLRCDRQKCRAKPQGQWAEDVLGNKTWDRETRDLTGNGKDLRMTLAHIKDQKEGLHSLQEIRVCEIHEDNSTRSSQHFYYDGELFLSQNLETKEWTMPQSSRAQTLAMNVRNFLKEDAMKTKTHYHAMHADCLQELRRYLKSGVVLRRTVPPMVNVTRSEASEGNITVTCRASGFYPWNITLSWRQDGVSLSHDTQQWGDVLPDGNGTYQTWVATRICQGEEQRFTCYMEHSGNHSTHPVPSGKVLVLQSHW
Kind of assay: purified proteins mixed, non-reducing SDS-PAGE.

For assay [2], the target named is T2, ERp5 (endoplasmic reticulum protein 5) on the cell surface (Homo sapiens (Human)) (UniProt Q15084).
T2 sequence: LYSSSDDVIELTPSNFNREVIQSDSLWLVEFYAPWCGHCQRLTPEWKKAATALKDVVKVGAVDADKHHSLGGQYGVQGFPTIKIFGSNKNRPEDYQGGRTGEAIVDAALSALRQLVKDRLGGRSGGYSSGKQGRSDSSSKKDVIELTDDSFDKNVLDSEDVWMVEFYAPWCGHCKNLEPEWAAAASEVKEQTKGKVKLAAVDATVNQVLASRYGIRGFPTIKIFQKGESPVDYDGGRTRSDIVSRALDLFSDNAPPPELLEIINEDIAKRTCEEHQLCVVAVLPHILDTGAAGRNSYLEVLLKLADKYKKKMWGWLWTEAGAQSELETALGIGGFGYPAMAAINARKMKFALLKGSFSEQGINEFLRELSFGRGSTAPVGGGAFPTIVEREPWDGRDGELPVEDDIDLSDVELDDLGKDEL
Kind of assay: flow cytometry, inhibition of MICA tetramer staining of tumor cells.

No constants are given. Whether binding was seen depends on the method and setting. Some results given as binding are weak or reduced against the parent protein; the word gives no strength.

B1: C39S mutant of ERp5 fragment 1-118 (enzyme, not shown: small tags and cut ends)
chain: LYSSSDDVIELTPSNFNREVIQSDSLWLVEFYAPWCGHSQRLTPEWKKAATALKDVVKVGAVDADKHHSLGGQYGVQGFPTIKIFGSNKNRPEDYQGGRTGEAIVDAALSALRQLVKD
In the case of B1, the binding entry in assay [1] is reported as “binds”.

B2: bacterial rMICA (non-glycosylated MICA expressed in bacteria) (ligand)
chain: EPHSLRYNLTVLSWDGSVQSGFLTEVHLDGQPFLRCDRQKCRAKPQGQWAEDVLGNKTWDRETRDLTGNGKDLRMTLAHIKDQKEGLHSLQEIRVCEIHEDNSTRSSQHFYYDGELFLSQNLETKEWTMPQSSRAQTLAMNVRNFLKEDAMKTKTHYHAMHADCLQELRRYLKSGVVLRRTVPPMVNVTRSEASEGNITVTCRASGFYPWNITLSWRQDGVSLSHDTQQWGDVLPDGNGTYQTWVATRICQGEEQRFTCYMEHSGNHSTHPVPSGK
Consider B2, for which the binding entry in assay [2] is given as “binds”.

Values taken from patent publication US20090169552A1 (FRED HUTCHINSON CANCER RESEARCH CENTER, published 2009).
